From publication PMC5055294 (PLoS ONE, 2016)
These are yes or no findings as the source states them, for the method shown. For part of these data: In cells and extracts the contact can be indirect. Some results given as binding are weak or reduced against the parent protein; the word gives no strength. Blank lines part the entries; values can stand above or below the molecule they belong to.

Protein sequences, listed by entry. Tags and fused reporters are not part of them. Residues count along the entry.
UniProt Q99731, residues 22-98: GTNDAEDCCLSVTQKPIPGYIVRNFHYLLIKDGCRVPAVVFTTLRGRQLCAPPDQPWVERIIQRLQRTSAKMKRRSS
UniProt P32121: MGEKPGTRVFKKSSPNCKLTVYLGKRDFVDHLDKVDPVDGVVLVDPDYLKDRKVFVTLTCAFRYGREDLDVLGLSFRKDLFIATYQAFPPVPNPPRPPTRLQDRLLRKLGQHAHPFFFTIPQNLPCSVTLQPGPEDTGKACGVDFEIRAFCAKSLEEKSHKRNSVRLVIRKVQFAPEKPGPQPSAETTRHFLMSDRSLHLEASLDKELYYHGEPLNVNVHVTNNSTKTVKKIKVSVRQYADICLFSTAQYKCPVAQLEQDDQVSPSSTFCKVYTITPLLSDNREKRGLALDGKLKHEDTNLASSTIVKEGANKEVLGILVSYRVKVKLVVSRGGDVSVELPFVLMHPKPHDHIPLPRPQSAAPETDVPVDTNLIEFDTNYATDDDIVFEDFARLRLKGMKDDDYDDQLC
UniProt P49407: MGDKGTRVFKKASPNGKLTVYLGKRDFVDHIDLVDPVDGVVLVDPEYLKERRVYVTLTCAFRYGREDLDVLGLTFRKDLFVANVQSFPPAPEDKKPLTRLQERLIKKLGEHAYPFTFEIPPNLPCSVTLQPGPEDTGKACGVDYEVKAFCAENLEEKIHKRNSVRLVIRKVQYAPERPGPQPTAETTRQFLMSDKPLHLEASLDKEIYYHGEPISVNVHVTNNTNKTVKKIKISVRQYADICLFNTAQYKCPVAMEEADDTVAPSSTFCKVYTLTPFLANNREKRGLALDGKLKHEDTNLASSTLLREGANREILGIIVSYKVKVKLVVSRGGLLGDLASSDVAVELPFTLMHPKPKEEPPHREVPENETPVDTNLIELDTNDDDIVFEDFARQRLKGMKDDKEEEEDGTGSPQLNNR

Legend:
CCRL2 [1] = target: T1, CCRL2 (human, UniProt O00421 1-344); assay: radioligand binding; CHO-K1 cells expressing CCRL2 with 0.1 nM [125I]-CCL19, with or without an excess (300 nM) of unlabeled chemerin, CCL5, CCL19 or CCL21; only the binder purified
T1 sequence (looked up): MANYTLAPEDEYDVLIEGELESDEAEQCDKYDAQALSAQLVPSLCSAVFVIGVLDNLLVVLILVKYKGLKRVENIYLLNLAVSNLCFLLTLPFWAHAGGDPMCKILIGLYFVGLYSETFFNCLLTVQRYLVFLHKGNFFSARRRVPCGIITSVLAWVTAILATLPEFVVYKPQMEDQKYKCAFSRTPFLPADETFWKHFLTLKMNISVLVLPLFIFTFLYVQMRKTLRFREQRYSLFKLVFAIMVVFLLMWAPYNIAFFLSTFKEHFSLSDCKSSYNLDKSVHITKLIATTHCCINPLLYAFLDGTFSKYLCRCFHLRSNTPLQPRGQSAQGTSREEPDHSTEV

CMKLR1-Venus (human) = target: T2, CMKLR1-Venus (human) (UniProt Q99788); assay: FRET or BRET; BRET proximity assay in living HEK293T cells co-transfected with β-arrestin-Rluc and receptor-Venus; PBS plus 0.1% glucose at 25°C; coelenterazine h 5 μM; stimulation with 100 nM chemerin; also with Pertussis toxin pretreatment
T2 sequence: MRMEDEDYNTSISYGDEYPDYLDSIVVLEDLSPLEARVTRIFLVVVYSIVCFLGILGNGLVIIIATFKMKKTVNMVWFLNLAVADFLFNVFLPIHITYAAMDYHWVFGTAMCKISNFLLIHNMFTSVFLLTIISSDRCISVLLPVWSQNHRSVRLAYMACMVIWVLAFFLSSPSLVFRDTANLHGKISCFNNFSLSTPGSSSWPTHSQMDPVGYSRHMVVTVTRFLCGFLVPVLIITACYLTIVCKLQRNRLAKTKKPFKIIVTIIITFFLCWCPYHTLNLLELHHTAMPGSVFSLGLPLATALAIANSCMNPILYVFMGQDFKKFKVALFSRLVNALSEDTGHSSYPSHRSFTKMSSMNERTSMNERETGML

CCRL2-Venus (human) = target: T3, CCRL2-Venus (human) (UniProt O00421); assay: as above
T3 sequence: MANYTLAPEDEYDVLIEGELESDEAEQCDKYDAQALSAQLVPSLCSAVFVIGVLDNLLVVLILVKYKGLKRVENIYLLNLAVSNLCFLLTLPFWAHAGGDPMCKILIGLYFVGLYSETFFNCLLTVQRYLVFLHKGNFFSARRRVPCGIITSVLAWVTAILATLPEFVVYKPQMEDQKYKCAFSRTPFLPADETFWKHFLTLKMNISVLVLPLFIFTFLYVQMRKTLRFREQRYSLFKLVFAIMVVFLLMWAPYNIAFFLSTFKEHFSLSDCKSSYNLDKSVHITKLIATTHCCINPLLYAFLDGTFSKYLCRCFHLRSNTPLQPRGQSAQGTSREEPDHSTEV

GPR1-Venus (human) = target: T4, GPR1-Venus (human) (UniProt P46091); assay: as above
T4 sequence: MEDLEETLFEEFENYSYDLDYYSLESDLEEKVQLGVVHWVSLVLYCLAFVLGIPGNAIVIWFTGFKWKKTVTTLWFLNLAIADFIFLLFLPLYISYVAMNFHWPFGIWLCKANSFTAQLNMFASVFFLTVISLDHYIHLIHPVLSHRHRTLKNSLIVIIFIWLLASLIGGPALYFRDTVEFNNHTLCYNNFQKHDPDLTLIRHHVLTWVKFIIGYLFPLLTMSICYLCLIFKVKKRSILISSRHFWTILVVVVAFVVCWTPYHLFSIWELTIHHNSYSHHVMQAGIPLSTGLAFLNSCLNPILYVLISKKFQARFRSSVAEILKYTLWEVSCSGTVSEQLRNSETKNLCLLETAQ

CMKLR1 (human) = target: T5, CMKLR1 (human) (UniProt Q99788); assay: radioligand binding; CHO-K1 cells expressing the receptor with 0.1 nM [125I]-[145–157]-chemerin as tracer, alone or with an excess or increasing concentrations of unlabelled chemerin or chemerin 9; 50 mM HEPES pH 7.4, 1 mM CaCl2, 5 mM MgCl2, 250 mM sucrose, 0.5% BSA; 30 min at room temperature; filtration; only the binder purified
T5 sequence: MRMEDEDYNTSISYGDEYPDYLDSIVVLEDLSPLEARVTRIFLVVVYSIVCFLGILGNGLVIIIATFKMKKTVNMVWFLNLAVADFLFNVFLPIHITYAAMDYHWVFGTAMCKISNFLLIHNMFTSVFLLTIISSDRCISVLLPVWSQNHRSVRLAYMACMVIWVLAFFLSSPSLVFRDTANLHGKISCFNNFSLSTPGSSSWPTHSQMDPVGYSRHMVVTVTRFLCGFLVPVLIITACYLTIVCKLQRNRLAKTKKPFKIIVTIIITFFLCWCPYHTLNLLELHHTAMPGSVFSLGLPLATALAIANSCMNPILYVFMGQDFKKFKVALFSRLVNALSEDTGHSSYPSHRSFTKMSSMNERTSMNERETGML

CCRL2 [2] = target: T1, CCRL2; assay: as above
GPR1 = target: T6, GPR1 (human, UniProt P46091 1-355); assay: as above
T6 construct: GPR1, human chemerin receptor, expressed on CHO-K1 cells; The functional rows with G protein biosensors (HEK293T, transfected) and with MEF cells also use this molecule; source: CHO-K1, stably expressing (Clone 8), on cells
T6 sequence (looked up): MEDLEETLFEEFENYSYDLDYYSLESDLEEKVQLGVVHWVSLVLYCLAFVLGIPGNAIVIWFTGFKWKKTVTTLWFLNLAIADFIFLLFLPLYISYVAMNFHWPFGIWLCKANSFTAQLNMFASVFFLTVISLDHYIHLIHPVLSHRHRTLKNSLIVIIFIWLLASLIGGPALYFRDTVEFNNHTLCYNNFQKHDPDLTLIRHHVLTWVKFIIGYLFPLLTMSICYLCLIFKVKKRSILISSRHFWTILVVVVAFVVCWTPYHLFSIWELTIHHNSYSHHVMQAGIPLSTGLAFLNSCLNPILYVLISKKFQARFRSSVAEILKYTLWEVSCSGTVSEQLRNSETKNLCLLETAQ

binding (CCRL2 [1]): binds weakly
Molecule: [125I]-CCL19 (from UniProt Q99731 22-98) (ligand)

binding (CMKLR1 (human)): binds
binding (CCRL2 [2]): no binding (tested: 0.1 nM)
binding (GPR1): binds
B1: [125I]-[145–157]-chemerin (peptide)
peptide: PHSFYFPGQFAFS
modifications: 125I label (residue not stated)

More lines, now with the values behind:

Molecule: β-arrestin2-Rluc (from UniProt P32121 1-409)
binding (CMKLR1-Venus (human)): binds
binding (CCRL2-Venus (human)): no binding

Molecule: β-arrestin1-Rluc (from UniProt P49407 1-418)
binding (CMKLR1-Venus (human)): binds
binding (GPR1-Venus (human)): binds
binding (CCRL2-Venus (human)): no binding
